The source of these data is patent US20070110747A1 (Amgen, published 2007).

Experiment [1] addresses T1, human sclerostin tryptic peptide T20.6 (human).
T1 sequence 1: DVSEYSCRELHFTR
T1 sequence 2: SAKPVTELVCSGQCGPAR
T1 sequence 3: WWRPSGPDFRCIPDRY
T1 sequence 4: LVASCKCKRLTR
The experiment is described as follows: Biacore peptide epitope competition binding assay.

Experiment [2] shares this target. Kind of experiment: Biacore peptide epitope competition binding assay (FIG. 17).
The target is the same in experiment [3]. The experiment is described as follows: Biacore human sclerostin peptide epitope competition binding assay: 2 nM Mab preincubated with 20 nM sclerostin or peptide in solution, then injected over immobilised mature human sclerostin; a lost response means the Mab bound the competitor in solution. In general terms: Surface plasmon resonance follows binding to a sensor surface in real time, without labels.

For experiment [4] the target is unchanged. Kind of experiment: Biacore peptide epitope competition binding assay (FIG. 18).
The target in experiment [5] is T2, rat sclerostin peptide KWWRPNGPDFRCIPDRYRAQRV (rat).
T2 construct: Coupled to the plate through its cysteine
T2 peptide: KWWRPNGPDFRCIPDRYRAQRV
The experiment is described as follows: ELISA on rat sclerostin peptides coupled to sulfhydryl binding plates, antibody at 1 ug/ml. The protocol:
A series of overlapping peptides (each peptide being approximately 20-25 amino acids long) were synthesized based on the known amino acid sequence of rat sclerostin (SEQ ID NO:98). […] This enabled the peptides to be bound to the assay plates by covalent coupling, using commercially available sulfhydryl binding plates (Costar), at a concentration of […], in phosphate buffered saline (PBS: pH 6.5) containing 1 mM EDTA. Following incubation for 1 hour at room temperature, the plates were washed three times with PBS containing 0.5% Tween 20. The plates were blocked by incubation with a PBS solution containing 0.5% fish skin gelatin (Sigma) for 30 minutes at room temperature and then washed three times in PBS containing 0.5% Tween 20.
Antibodies to be tested were diluted to 1 μg/ml in PBS containing 0.5% fish skin gelatin and incubated with the peptide-coated plates for 1 hour at room temperature. Excess antibody was removed by three washes with PBS, 0.5% Tween 20. […] Finally the plates were incubated with a horseradish peroxidase chromogenic substrate (TMB-Stable Stop, RDI) for 5 minutes at room temperature, the color development was stopped with acid, and the plates' optical density measured at 450 nm.
On the technique in general: An ELISA detects its analyte on a solid surface through an enzyme-linked reagent.

Results are given in words; binding and its absence hold for the method and conditions named. Some entries that bind do so weakly or less than the wild type.

B1: Antibody C (antibody, mouse IgG1, kappa, V domains shown)
VH: EVQLQQSGPELVKPGTSVKMSCKASGYTFTDCYMNWVKQSHGKSLEWIGDINPFNGGTTYNQKFKGKATLTVDKSSSTAYMQLNSLTSDDSAVYYCARSHYYFDGRVPWDAMDYWGQGTSVTVSS
VL: DIVLTQSPASLTVSLGLRATISCKASQSVDYDGDSYMNWYQQKPGQPPKLLIYAASNLESGIPARFSGNGSGTDFTLNIHPVEEEDAVTYYCQQSNEDPWTFGGGTKLEIKR
For B1, the binding entry in experiment [1], in experiment [2] and in experiment [3] was “binds” throughout.

B2: Antibody D (antibody, mouse IgG1, kappa, V domains shown)
VH: EVQLQQSGPELVTPGASVKISCKASGYTFTDHYMSWVKQSHGKSLEWIGDINPYSGETTYNQKFKGTATLTVDKSSSIAYMEIRGLTSEDSAVYYCARDDYDASPFAYWGQGTLVTVSA
VL: DVQMIQSPSSLSASLGDIVTMTCQASQGTSINLNWFQQKPGKAPKLLIYGSSNLEDGVPSRFSGSRYGTDFTLTISSLEDEDLATYFCLQHSYLPYTFGGGTKLEIKR
B2: the binding entry in experiment [1], in experiment [4] and in experiment [3] was “binds” each time.

B3: Antibody 19 (antibody, V domains shown)
VH: EVQLQQSGPELVKPGASVKMSCKASGFTFTDYIMHWVKQKPGQGLEWIGYINPYNDDTEYNEKFKGKATLTSDKSSSTAYMDLSSLTSEGSAVYYCARSIYYYDAPFAYWGQGTLVTVSS
VL: DIQMTQTTSSLSASLGDRVNISCRASQDISSYLNWYQQKPDGTVKLLIYSTSRLNSGVPSRFSGSGSGTDYSLTISNLAQEDIATYFCQQDIKHPTFGGGTKLELKR
notes: also called Ab-19
For the molecule B3, the binding result in experiment [5] is “binds”.
